Laboratory results taken from the supplement of paper PMC5949888.
Most values lie at the floor of the assay. Slopes are relative: functional sequences can read slightly below zero.

These substances were tested on Saccharomyces cerevisiae PS128 hsf1 delta, HSF1(1-493) fusion (assay: growth estimate (transactivation domain function in HSF1 fusion, heat-shock survival) (a.u. (slope of normalised read count over time)); higher = stronger growth at 37°C, i.e. more transactivation activity). Details: library: random library.
For LSQESLGISSLRHLGHLPPS, the growth estimate was under -0.25.
LSRGMITWFSLLSVDPEHRP was tested, and the growth estimate was under -0.25.
LSRLR showed a growth estimate of under -0.25.
Substance LSRQ has a growth estimate of under -0.25.
For LSRSVTEARARHSANPCSGS, the growth estimate was under -0.25.
For LSRTMNARAASNQQGVRGTT, the growth estimate was under -0.25.
For LSS, the growth estimate was under -0.25.
Work on LSSGTNWRFSTLGL yielded a growth estimate of under -0.25.
Work on LSSLTQTLSPVEHAWSPLAP yielded a growth estimate of under -0.25.
With LSSP the growth estimate was under -0.25.
LSSRLLLNPR was tested, and the growth estimate was under -0.25.
LSSSHSQSGRTKAKTTNAAA was tested, and the growth estimate was under -0.25.
LSSTL showed a growth estimate of under -0.25.
Substance LSSVKRVLTIHSSQGVTWAS has a growth estimate of under -0.25.
With LSSWTGG the growth estimate was under -0.25.
LSTGEALS was tested, and the growth estimate was under -0.25.
With LSTIRFMICRTPIMASGRRG the growth estimate was under -0.25.
LSTRLIKKDGVASNRRLCSR gave a growth estimate of under -0.25.
For LSVAINSKTITGAGVLRLRG, the growth estimate was under -0.25.
With LSVCGSTGVLTHPTRRA the growth estimate was under -0.25.
For LSVQGGSWA, the growth estimate was under -0.25.
With LSVRFYSGTDRSNAKPFSKG the growth estimate was under -0.25.
Substance LSVSAIMCESLNFHAEILGR has a growth estimate of under -0.25.
LSVSIPWGRRQWARRASLLC gave a growth estimate of under -0.25.
With LSVTAHSDASSSSR the growth estimate was under -0.25.
LSVVAISTSTLMFGTRLGVF showed a growth estimate of under -0.25.
LSYSALCCGSSFRPFCPEMC showed a growth estimate of under -0.25.
In the case of LTAATRRCPGPTQLLGDPAH, the growth estimate is reported as under -0.25.
Work on LTAVAMFRGVIIMN yielded a growth estimate of under -0.25.
With LTAWFGS the growth estimate was under -0.25.
Substance LTAYAFELAIEGDRHPYAT has a growth estimate of under -0.25.
LTCVEAWGTLDH showed a growth estimate of under -0.25.
In the case of LTCYLARTAK, the growth estimate is reported as under -0.25.
LTDITPFRAWPNSVEKAVLA gave a growth estimate of under -0.25.
Substance LTDRGPEFHLYGVRIETIKP has a growth estimate of under -0.25.
For LTDS, the growth estimate was under -0.25.
Work on LTEGRVKKDIFEYN yielded a growth estimate of -0.246.
Substance LTEPDG has a growth estimate of under -0.25.
Work on LTFYSSDCDSLVGKPECLSK yielded a growth estimate of under -0.25.
Substance LTGCLPKPLFRLRVTAEQTT has a growth estimate of under -0.25.
With LTGERLVGRRLAY the growth estimate was under -0.25.
LTGLGLSDRIKTCSGHGVVS gave a growth estimate of under -0.25.
In the case of LTGVTRRWCVCFPAEVENPR, the growth estimate is reported as under -0.25.
LTHCAGVFCHNQRVYALTC showed a growth estimate of under -0.25.
For LTHMESDCVPVGGADFEVFN, the growth estimate was under -0.25.
LTHVNNMEVLASSR was tested, and the growth estimate was under -0.25.
LTICVHELPWHGYLSDVNSG was tested, and the growth estimate was under -0.25.
LTITCLIHIRIPEKLGAGLQ showed a growth estimate of under -0.25.
Work on LTIVLGQIG yielded a growth estimate of under -0.25.
For LTKMSTWYSWI, the growth estimate was under -0.25.
In the case of LTKVSTRYPSRPVGGARIPR, the growth estimate is reported as under -0.25.
Substance LTLPFSSANAVD has a growth estimate of under -0.25.
LTLRQPQPIDAPPGSVTILL was tested, and the growth estimate was under -0.25.
For LTNG, the growth estimate was under -0.25.
LTPD gave a growth estimate of under -0.25.
LTPGKSPLYATRWYSDEYVD gave a growth estimate of under -0.25.
With LTPGSANRLVDI the growth estimate was under -0.25.
For LTPIPLGPSPSRRGS, the growth estimate was under -0.25.
LTPLL showed a growth estimate of under -0.25.
For LTPMSKSLFAQVRFRLRLRV, the growth estimate was under -0.25.
In the case of LTPVIFSPWPGASVCHLKFR, the growth estimate is reported as under -0.25.
LTPVSFAVEFEV showed a growth estimate of under -0.25.
LTRIDTCAVIADCVGVQGPG gave a growth estimate of under -0.25.
LTRIGPQCCTRGAEMCQQLI gave a growth estimate of under -0.25.
For LTRLCYPRT, the growth estimate was under -0.25.
For LTRPSLISDDMR, the growth estimate was under -0.25.
For LTRRFGTLGGGVGVSMTWGN, the growth estimate was under -0.25.
Substance LTRRVI has a growth estimate of under -0.25.
For LTRSRACFDCTWVRLASRSL, the growth estimate was under -0.25.
LTRVLTLQNGLSLRM showed a growth estimate of under -0.25.
Work on LTRVPRRVHEGTTCTTESVP yielded a growth estimate of under -0.25.
For LTRVQVPEVPGSYLLSAALL, the growth estimate was -0.239.
Substance LTSAPSS has a growth estimate of under -0.25.
In the case of LTSCPGPAAAVSRGQPKFHE, the growth estimate is reported as under -0.25.
LTSGSPPELKSSFSGLLVFR showed a growth estimate of under -0.25.
With LTSIF the growth estimate was under -0.25.
LTSKWAGKLVQPAMPGTQRN gave a growth estimate of under -0.25.
In the case of LTSTVSVRRNMEREGVVMWQ, the growth estimate is reported as under -0.25.
LTSYYPGTQFTSPFLPAVLC showed a growth estimate of under -0.25.
LTT was tested, and the growth estimate was under -0.25.
LTTGAIHVVDIPEDRVLCDG gave a growth estimate of under -0.25.
LTTHNKLRHAPGLRMCSETA showed a growth estimate of -0.246.
With LTTRRGKPIRRKKVIMFNQR the growth estimate was under -0.25.
For LTTS, the growth estimate was under -0.25.
LTTSVISRSTFRVIQV was tested, and the growth estimate was under -0.25.
Substance LTTWGKRKDHSSNALHTLIQ has a growth estimate of under -0.25.
Substance LTV has a growth estimate of under -0.25.
Substance LTVQNGSQAVLRGVSVTPAV has a growth estimate of under -0.25.
LTVYDLGDACSELYRLNARG was tested, and the growth estimate was under -0.25.
Work on LTVYFGRVHAQAYTAVLILA yielded a growth estimate of under -0.25.
For LTWR, the growth estimate was under -0.25.
LTYLLRPAKHTLVWFWV was tested, and the growth estimate was under -0.25.
LTYTTGTTKLNPGQSSDLRT gave a growth estimate of under -0.25.
LVAAQFNSTQRALVGVSFTS gave a growth estimate of under -0.25.
LVARLDLLILRCSSFVYGVS showed a growth estimate of under -0.25.
Work on LVAVPEGFVCGMFGHLYRLP yielded a growth estimate of under -0.25.
LVCERSIFRIPTVSGQ gave a growth estimate of under -0.25.
